About 1,400 (4.5%) of roughly 31,000 sequences were called active.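 Rule for the calls: active = median seed-adjusted z-score above 1 or below -1; inactive = the rest.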 Some of the results follow.
test: Novel Modifiers of Survival Motor Neuron (SMN) Protein: Gene Identification via Genome-wide siRNA Screen; settings: HEK293T SMN2-luciferase reporter, siRNA knockdown, 72 h; actives lie on both sides;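 note: luminescence tracks full-length SMN protein made from the SMN2 reporter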
Procedure, shortened: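 HEK293T cells stably expressing an SMN2 splicing/cDNA-luciferase reporter were reverse-transfected with a druggable-genome siRNA library and read by luminescence at 72 hours; hits defined by MAD score above 1.0 or below -1.0.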

Row | Sequence | median seed-adjusted z-score
1 | GGAAGUCUCUUGUCUGCAATT against RNASEL | inactive: 0
2 | GGAUUUGAGGGAAAACGCATT against FMO2 | inactive: -0.265
3 | GGAAGACCAUUGAUUGCAATT against CLPB | inactive: -0.985
4 | GAAUUUCAACCAGUACUAUTT against ACSBG2 | inactive: 0.027
5 | GAAAUCUUCUUGAGUGUAATT against GPR141 | inactive: -0.777
6 | CAGUCAAGCGGACCACAAATT against CHRM2 | inactive: 0.053
7 | ACAAAUACGUGGAAAAGAATT against CENTB5 | inactive: 0.183
8 | UCUACUUCCAAGAAUUUAATT against SCNN1B | inactive: 0.585
9 | GCACUACAUUGACCUGAAATT against NME2 | inactive: -0.0728
10 | CCCAUGCUGUCUACGGCAATT against GPR173 | inactive: -0.147
11 | CUCUGUGAAUGGUGCCGAATT against FAM57A | inactive: 0.0434
12 | GAGUGAAGAUGAGUUGACATT against XRCC6 | inactive: 0
13 | GGUGUUAUCAGAAUUCCGATT against CARS | inactive: 0
14 | CCCUUAAACUCGAACCCAATT against HLX | inactive: 0.379
15 | GGUUUUUCCGCCAACUAGATT against CAPS | active: -1.25
16 | GAAAAGGAUUGUAAGAUAATT against SULT1E1 | inactive: 0.509
17 | GAAUGGAAACGAUUGUCUUTT against PCMTD2 | inactive: -0.0765
18 | GAACUGAGUUAAUUGGGAATT against SELL | inactive: 0.554
19 | GGAGGAGUCUUUAAAGAGATT against LPO | inactive: 0.201
20 | GGAUUCCGAGAGUGCCUAATT against HEY2 | inactive: -0.0831
21 | CACGGGAUAUGGAACGAAATT against CXCR7 | inactive: -0.511
22 | UCCGCAUCCUAGUCUCUAUTT against LTC4S | inactive: 0

Row | Sequence | median seed-adjusted z-score
23 | GGUCCUUCAUGCACGUCAATT against DUSP3 | inactive: -0.00768
24 | CCCUCUCCGUGCAAAUGCATT against CHRNA4 | inactive: 0.174
25 | GGAGAUUCUAGUAUACAGATT against PTPN2 | inactive: 0.302
26 | CUACCGAAAUGUCUUCCAUTT against SLC25A35 | inactive: -0.762
27 | CCCUUGCCUCAGCAUCUGATT against SPRY3 | inactive: -0.126
28 | GGUGGACUUCUAUGCCUUATT against TTC16 | inactive: 0
29 | GGCCUUCAAUUGAAGAAGUTT against TSSK3 | inactive: -0.381
30 | GAAUCAAGACAAACCCGAATT against TTN | inactive: 0.872
31 | CCAUGAGGUGCAUAUCUAUTT against ARPC1B | inactive: 0
32 | CCACUCUCAUUGUGACUGATT against DDX54 | inactive: 0
33 | GGAUUCUAUUUAUUAUGCUTT against CDKN2D | inactive: -0.455
34 | AAAAACCCGUUGUUCUAAATT against CYP3A4 | inactive: 0.633
35 | GAGUGAGAGCUGUAGAAAATT against CREB3 | inactive: 0.0509
36 | GGUGAUUCAAGAUGCCCAATT against PXMP2 | inactive: -0.444
37 | CCUCACUUCCUGACCAUAATT against F5 | inactive: -0.127
38 | GCAUGUCAGGAUUAGCCGATT against BMP4 | inactive: -0.612
39 | CGUCCAAGAUCGAACCCAUTT against HIRA | inactive: 0.286
40 | GCAUUGGGAUGUACUUGUATT against LRP12 | inactive: 0.416
41 | CCAAGACCGAAAGCACAGATT against NUDT4 | inactive: -0.0306
42 | GCCGUUACCAUGGAACUUUTT against GSPT2 | inactive: 0.846
43 | GAAGUGUUUGAAUCUCGUATT against AKAP3 | inactive: 0.0138
44 | CCUUCACUCCGGUCAAGUATT against FARSA | inactive: -0.158

Nos. 1–24, reprinted for reference:
Row | Sequence | median seed-adjusted z-score
1 | GGAAGUCUCUUGUCUGCAATT against RNASEL | inactive: 0
2 | GGAUUUGAGGGAAAACGCATT against FMO2 | inactive: -0.265
3 | GGAAGACCAUUGAUUGCAATT against CLPB | inactive: -0.985
4 | GAAUUUCAACCAGUACUAUTT against ACSBG2 | inactive: 0.027
5 | GAAAUCUUCUUGAGUGUAATT against GPR141 | inactive: -0.777
6 | CAGUCAAGCGGACCACAAATT against CHRM2 | inactive: 0.053
7 | ACAAAUACGUGGAAAAGAATT against CENTB5 | inactive: 0.183
8 | UCUACUUCCAAGAAUUUAATT against SCNN1B | inactive: 0.585
9 | GCACUACAUUGACCUGAAATT against NME2 | inactive: -0.0728
10 | CCCAUGCUGUCUACGGCAATT against GPR173 | inactive: -0.147
11 | CUCUGUGAAUGGUGCCGAATT against FAM57A | inactive: 0.0434
12 | GAGUGAAGAUGAGUUGACATT against XRCC6 | inactive: 0
13 | GGUGUUAUCAGAAUUCCGATT against CARS | inactive: 0
14 | CCCUUAAACUCGAACCCAATT against HLX | inactive: 0.379
15 | GGUUUUUCCGCCAACUAGATT against CAPS | active: -1.25
16 | GAAAAGGAUUGUAAGAUAATT against SULT1E1 | inactive: 0.509
17 | GAAUGGAAACGAUUGUCUUTT against PCMTD2 | inactive: -0.0765
18 | GAACUGAGUUAAUUGGGAATT against SELL | inactive: 0.554
19 | GGAGGAGUCUUUAAAGAGATT against LPO | inactive: 0.201
20 | GGAUUCCGAGAGUGCCUAATT against HEY2 | inactive: -0.0831
21 | CACGGGAUAUGGAACGAAATT against CXCR7 | inactive: -0.511
22 | UCCGCAUCCUAGUCUCUAUTT against LTC4S | inactive: 0
23 | GGUCCUUCAUGCACGUCAATT against DUSP3 | inactive: -0.00768
24 | CCCUCUCCGUGCAAAUGCATT against CHRNA4 | inactive: 0.174

(further entries)

Row | Sequence | median seed-adjusted z-score
45 | GCAAGACCUUUGACUACAATT against SSRP1 | inactive: -0.31
46 | GGUCUAUGAUUGACAAGUATT against NRD1 | inactive: 0.0825
47 | GGCCAAUGGCUGAUGGUGATT against HSPB9 | inactive: 0.262
48 | AGAAUAAGUUCAAACAGGATT against RAB4B | inactive: -0.207
49 | CCAUGAUUGGGAUCUCUGUTT against AQP6 | inactive: 0.008
50 | GCCUACCUCUAUAUCCGAATT against SNRNP200 | inactive: 0.889
51 | GCGUGGAAGCUUCUAUUUATT against WTIP | inactive: 0.222
52 | CAUCGGCUUCGGUGACUUUTT against KCNK5 | inactive: 0
53 | GGGACAUGCUUUGGAAGAATT against KHDRBS3 | inactive: 0.0681
54 | GACUUGAAUGGAACGGUGATT against IKBKB | inactive: 0.0896
55 | CCAUGGGAAUCCAAUCUGUTT against PTTG1 | inactive: -0.459
56 | AAUUCAUCGUUAUGUGGAATT against AP1S2 | inactive: -0.323
57 | CGACUAUUGUUGAAGUUAATT against HSPA13 | inactive: 0
58 | GCUUUACACUGGGACGAAATT against NOX3 | inactive: 0.04
59 | GUGCUGAACUUCUACCGAATT against KCND1 | inactive: -0.359
60 | CCUGAACCCUUACCGGAAATT against SETD2 | inactive: -0.0192
61 | AACUGGAAAUUAUACAAAATT against NDUFA4 | inactive: 0
62 | CCAUAGCGGCAACCAAGAATT against MGAT4A | inactive: 0.134
63 | GAAGCAUGUAUAUUACCUATT against SLC19A3 | inactive: -0.0232
64 | GUUCCACUUUAAACACUCATT against FEZF1 | inactive: 0.155
65 | CAGUGAAAAGUGACGCGGATT against DZIP1 | inactive: -0.138
66 | CCACGCUGGAGAUCCUUAATT against FES | inactive: 0.402

Row | Sequence | median seed-adjusted z-score
67 | UGAUCUUUGUCGGCAUUAATT against CYCS | inactive: -0.679
68 | GAAUAUUGCAAUAGACUUATT against ZNF678 | inactive: 0.172
69 | GACCUGGGCAGAUUCCAAATT against MMP9 | active: -1.15
70 | GAACAACACGACCAACAGATT against PRKD2 | inactive: 0.00493
71 | GGAGCAGUAUUGACAACAATT against NUFIP1 | inactive: -0.673
72 | AGAUCACAAGAGAACUUGUTT against AP1S2 | inactive: -0.323
73 | GGACUGCGAAGAACUCCUATT against VAV3 | inactive: 0
74 | CAAAGAACCUAUCCGCUUATT against GGA2 | inactive: -0.142
75 | GUGCUACAAUUGUACAGUATT against CREM | active: -2.37
76 | AGACUGCAAUGAACGUGAATT against RAB5C | inactive: -0.529
77 | GCACGGCUCUAUCUCAUCATT against TRIM56 | inactive: -0.452
78 | GGUGAUCAUUUAUAACAGATT against HS2ST1 | inactive: 0.421
79 | CCGGAAAUUUGGGACGCAATT against DHX58 | inactive: -0.302
80 | GCCUUACUCGUGCAGCGAATT against ZNF672 | inactive: 0.35
81 | CGAAGUCAACAAUACCAUUTT against PEPD | inactive: -0.00401
82 | GAGAAUGACUGGUGGGUUUTT against ARPC1B | inactive: 0
83 | GCAAUUUUGACAAUGCUAATT against SYTL3 | inactive: 0.236
84 | GGACAAUCCUUGGUUCUGUTT against LRIT3 | inactive: 0.0324
85 | GUCAAAAUGUUCUACAUUATT against LECT2 | inactive: 0.0371
86 | CCUCCUCGAUGCCUACAAATT against DIO2 | inactive: -0.549
87 | GGAAUUUCCUAACUCUCCATT against HHIP | inactive: 0
88 | GUCUCCAUGUGGACAAGGATT against CREBZF | inactive: 0.424

Row | Sequence | median seed-adjusted z-score
89 | CGCUCACUGUUCUUCGGCUTT against RAD9A | inactive: -0.0564
90 | CCCUCAUCAGUAAUGGUCATT against CYP1A1 | inactive: 0.124
91 | GCUUGACUAUGGAAAGAAATT against CTDSPL | inactive: 0.43
92 | GGAGUACUGUGACUACAGATT against SCNN1A | inactive: -0.137
93 | CAGCUAAGCUUGUAGCGAUTT against VPS54 | inactive: -0.128
94 | GAUCUUCUGUUGUCAUGGATT against PPP1CB | inactive: -0.81
95 | CCUUUACCCAGAUUAUGCATT against GRIK1 | inactive: -0.31
96 | CACCCUCCGACUUUCUUUUTT against USP41 | inactive: 0.808
97 | GAAGCAUUAGUUUUACGAATT against PLD5 | inactive: -0.0377
98 | CAUCCUCGAUAGUACUCAATT against LNX1 | inactive: -0.463
99 | GGCCUGUUGCUGUUCAUGATT against SLC37A4 | inactive: -0.00202
100 | GGACUGAUCUGUUCAGCAATT against ELF5 | inactive: -0.45
101 | GACUAACCAUGACCUAUGATT against SLCO1B1 | inactive: 0.127
102 | GACUUUAUCCUGAAGCUUUTT against GNA14 | inactive: 0.363
103 | GGUUUGUGAAAGCAUAUAATT against FMNL2 | inactive: 0.293
104 | GGCUAUGACAGUUCUGUAATT against KCNQ1 | inactive: -0.0525
105 | GUAUCGAAGUGGAGACAAUTT against NELL1 | inactive: -0.466
106 | GCACUGCCUUGUACAACUATT against EARS2 | inactive: 0.0463
107 | CCGUAUGUUUUGCUGCAAATT against ABCC4 | active: -1.66
108 | CCGAUAUCCUCGUGACUGATT against CACNA1A | inactive: -0.467

From PubChem BioAssay AID1347426 (Functional Genomics Laboratory (NCATS/FGL), 2020)
